doi:10.1101/2024.10.13.618061 (bioRxiv, 2024)
Results are given in words; binding and its absence hold for the method and conditions named. Some results given as binding are weak or reduced against the parent protein; the word gives no strength. Tags and fused reporters may be left off the sequences shown.

Experiments:
[1] = molecular target: wheat Sr35 (Triticum monococcum; TmSr35) [change]/[change], untagged (Triticum monococcum) (UniProt S5ABD6); test: cryo-EM structure
[2] = molecular target: wheat Sr35 (Triticum monococcum; TmSr35) [change]/[change], untagged (Triticum monococcum) (UniProt S5ABD6); test: SEC

B1: wheat Sr35 (Triticum monococcum; TmSr35) [change]/[change], untagged (receptor)
chain: MEIAMGAIGSELPKEGELLIGEITLEKKVRKGIESLITELKLMQAVLSKVSKVPADQLDEGVKIWAGNVKELSYQMEDIVDAFMVRVGDGGESTNPKNRVKKILKKVKKLFKNGKDLHRISAALEEVVLQAKQLAELRQRYEQEMRDTSANTSVDPRMMALYTDVTELVGIEETRDKLINMLTEGDDWSKHPLKTISIVGFGGLGKTTLAKAAYDKIKVQFDCGAFVSVSRNPEMKKVLKDILYGLDKVKYENIHNAARDEKYLIDDIIEFLNDKRYLIVIDDIWNEKAWELIKCAFSKKSPGSRLITTTRNVSVSEACCSSEDDIYRMEPLSNDVSRTLFCKRIFSQEEGCPQELLKVSEEILKKCGGVPLAIITIASLLANKGHIKAKDEWYALLSSIGHGLTKNRSLEQMKKILLFSYYDLPSYLKPCLLYLSIFPEDREIRRARLIWRWISEGFVYSEKQDISLYELGDSYFNELVNRSMIQPIGIDDEGKVKACRVHDMVLDLICSLSSEENFVTILDDPRRKMPNSESKVRRLSIQNSKIDVDTTRMEHMRSVTVFSDNVVGKVLDISRFKVLRVLDLEGCHVSDVGYVGNLLHLRYLGLKGTHVKDLPMEIGKLQFLLTLDLRGTKIEVLPWSVVQLRRLMCLYVDYGMKLPSGIGNLTFLEVLDDLGLSDVDLDFVKELGRLTKLRVLRLDFHGFDQSMGKALEESISNMYKLDSLDVFVNRGLINCLSEHWVPPPRLCRLAFPSKRSWFKTLPSWINPSSLPLLSYLDITLFEVRSEDIQLLGTLPALVYLEIWNYSVFEEAHEVEAPVLSSGAALFPCATECRFIGIGAVPSMFPQGAAPRLKRLWFTFPAKWISSENIGLGMRHLPSLQRVVVDVISEGASREEADEAEAALRAAAEDHPNRPILDIW
In the case of B1, the binding [1] is reported as “binds” and the binding [2] is reported as “binds”.
